The list does not hold the whole screen: it gathers some chemical classes. Not every dose and run of a compound is shown. T/C is the treated group as % of the vehicle group. Where survival is the endpoint, the PubChem record calls one and a half times the control and up active, and a quarter to a half above the control has no call in these data; cut-offs in other NCI protocols can differ. Some entries show no survivor count and are marked so; the dose need not have been tolerated. Schedule codes are those of the source, taken here to give the interval after Q, in days (D) or hours (H), and the number of doses after X. Signs of the kind (2×) say how often a value occurs here. Some entries hold several experiments; the values are given in rising order.

The assay has as its system BDF1 mice, B16 melanoma ip, median survival T/C. Kind of assay: NCI In Vivo Anticancer Drug Screen. Data for tumor model B16 Melanoma (intraperitoneal) in B6D2F1 (BDF1) mice. The settings on record: T/C endpoint: median survival time, higher T/C = longer survival. Here is the method:
The antitumor activity of compounds was measured in mice bearing transplantable tumors. Survival or tumor size were measured and the results are expressed as the measurement made in the treated group (T) divided by the measurement made in the vehicle treated control group (C). The tumor model used in this assay is B16 Melanoma (intraperitoneal) in B6D2F1 (BDF1) mice

Where [1] appears, read: dose: 12.5 mg/kg/injection, schedule: Q01DX009 (ip), vehicle: saline.
Setting [2] is: dose: 25.0 mg/kg/injection, schedule: Q01DX009 (ip), vehicle: saline.
Where [3] appears, read: dose: 50.0 mg/kg/injection, schedule: Q01DX009 (ip), vehicle: saline.
Setting [4] is: dose: 100.0 mg/kg/injection, schedule: Q01DX009 (ip), vehicle: saline.
Where [5] appears, read: dose: 6.25 mg/kg/injection, schedule: Q01DX009 (ip), vehicle: saline.
Where [6] appears, read: dose: 0.75 mg/kg/injection, schedule: Q01DX009 (ip), vehicle: saline.
[7] abbreviates: dose: 1.5 mg/kg/injection, schedule: Q01DX009 (ip), vehicle: saline.

On to `CN1CCN(NCCN2CCCC(OC(=O)C(O)(c3ccccc3)c3ccccc3)C2)CC1` (stereo unspecified), for which the T/C is 104 % of control [survivor count not shown] under setting [1]; 99 % of control [survivor count not shown] under setting [2]; 96 % of control [survivor count not shown] under setting [3]; 95 % of control [survivor count not shown] under setting [4]; 100 % of control [survivor count not shown] (dose: 200.0 mg/kg/injection, schedule: Q01DX009 (ip), vehicle: saline).
Regarding `O=C(OC1CCCN(CO)C1)C(O)(c1ccccc1)c1ccccc1` (stereo unspecified), the T/C under setting [5] is 107 % of control [survivor count not shown]; the T/C under setting [1] was 100 % of control [survivor count not shown]; the T/C under setting [2] is 103 % of control [survivor count not shown]; the T/C under setting [3] was 100 % of control [survivor count not shown]; the T/C under setting [4] was 98 % of control [survivor count not shown].
With `Cc1cc(C)cc(CN(CCCl)CCCl)c1`, the T/C runs as follows: (dose: 0.5 mg/kg/injection, schedule: Q01DX009 (ip), vehicle: saline) 93 % of control [survivor count not shown]; under setting [6], 131 % of control [survivor count not shown]; (dose: 1.0 mg/kg/injection, schedule: Q01DX009 (ip), vehicle: saline) 95 % of control [survivor count not shown]; under setting [7], 155 % of control [survivor count not shown]; (dose: 2.0 mg/kg/injection, schedule: Q01DX009 (ip), vehicle: saline) 119 % of control [survivor count not shown]; (dose: 3.13 mg/kg/injection, schedule: Q01DX009 (ip), vehicle: saline with Tween-80) 150 % of control [survivor count not shown]. The T/C by setting is: (dose: 3.13 mg/kg/injection, schedule: Q04DX003 (ip), vehicle: saline) 113 % of control [survivor count not shown]; (dose: 4.0 mg/kg/injection, schedule: Q01DX009 (ip), vehicle: saline) 152 % of control [survivor count not shown]; (dose: 6.0 mg/kg/injection, schedule: Q01DX009 (ip), vehicle: saline) 134 [survivor count not shown] and 176 % of control [survivor count not shown]; (dose: 6.25 mg/kg/injection, schedule: Q01DX009 (ip), vehicle: saline with Tween-80) 167 % of control [survivor count not shown]; (dose: 6.25 mg/kg/injection, schedule: Q04DX003 (ip), vehicle: saline) 118 % of control [survivor count not shown]; (dose: 9.0 mg/kg/injection, schedule: Q01DX009 (ip), vehicle: saline) 178 % of control [survivor count not shown]. Further, the T/C (dose: 12.5 mg/kg/injection, schedule: Q04DX003 (ip), vehicle: saline) is 136 % of control [survivor count not shown].
Take `ClCCN1CCCC1CCl` (stereo unspecified): the T/C by setting is: under setting [6], 116 % of control [survivor count not shown]; under setting [7], 131 % of control [survivor count not shown]; (dose: 3.0 mg/kg/injection, schedule: Q01DX009 (ip), vehicle: saline) 150 % of control [survivor count not shown]; (dose: 375.0 micrograms/kg/injection, schedule: Q01DX009 (ip), vehicle: saline) 97 [survivor count not shown] and 105 % of control [survivor count not shown]; (dose: 750.0 micrograms/kg/injection, schedule: Q01DX009 (ip), vehicle: saline) 107 % of control [survivor count not shown] (2×); (dose: 1500.0 micrograms/kg/injection, schedule: Q01DX009 (ip), vehicle: saline) 122 [survivor count not shown] and 129 % of control [survivor count not shown]. For the same compound, where the note is “dose: 3000.0 micrograms/kg/injection, schedule: Q01DX009 (ip), vehicle: saline”, the T/C is 141 [survivor count not shown] and 148 % of control [survivor count not shown].
For `CC(OC(=O)C(O)(c1ccccc1)c1ccccc1)C1CCCCN1C` (stereo unspecified), the T/C is, setting by setting: (dose: 0.19 mg/kg/injection, schedule: Q01DX009 (ip), vehicle: Klucel (hydroxypropylcellulose) (HPC)) 100 % of control [survivor count not shown]; (dose: 0.39 mg/kg/injection, schedule: Q01DX009 (ip), vehicle: Klucel (hydroxypropylcellulose) (HPC)) 105 % of control [survivor count not shown]; (dose: 0.78 mg/kg/injection, schedule: Q01DX009 (ip), vehicle: Klucel (hydroxypropylcellulose) (HPC)) 94 % of control [survivor count not shown]; (dose: 1.56 mg/kg/injection, schedule: Q01DX009 (ip), vehicle: Klucel (hydroxypropylcellulose) (HPC)) 104 % of control [survivor count not shown]; (dose: 3.12 mg/kg/injection, schedule: Q01DX009 (ip), vehicle: Klucel (hydroxypropylcellulose) (HPC)) 122 % of control [survivor count not shown].
As for `ClCCNCCBr`, the T/C runs as follows: (dose: 1.25 mg/kg/injection, schedule: Q01DX009 (ip), vehicle: saline) 100 [survivor count not shown], 111 [survivor count not shown], 115 % of control [survivor count not shown]; (dose: 2.5 mg/kg/injection, schedule: Q01DX009 (ip), vehicle: saline) 113 [survivor count not shown], 121 [survivor count not shown], 127 % of control [survivor count not shown]; (dose: 2.5 mg/kg/injection, schedule: Q04DX003 (ip), vehicle: saline) 106 % of control [survivor count not shown]; (dose: 3.3 mg/kg/injection, schedule: Q01DX009 (ip), vehicle: saline) 116 % of control [survivor count not shown]; (dose: 5.0 mg/kg/injection, schedule: Q01DX009 (ip), vehicle: saline) 124 [survivor count not shown], 136 [survivor count not shown], 139 % of control [survivor count not shown]; (dose: 5.0 mg/kg/injection, schedule: Q04DX003 (ip), vehicle: saline) 108 % of control [survivor count not shown]. The T/C runs as follows: (dose: 7.5 mg/kg/injection, schedule: Q01DX009 (ip), vehicle: saline) 122 % of control [survivor count not shown]; (dose: 10.0 mg/kg/injection, schedule: Q04DX003 (ip), vehicle: saline) 106 % of control [survivor count not shown]; (dose: 20.0 mg/kg/injection, schedule: Q04DX003 (ip), vehicle: saline) 120 % of control [survivor count not shown].
Turning to `CN1CCCC(OC(=O)C(O)(c2ccccc2)C2CCCC2)C1` (stereo unspecified), the T/C runs as follows: (dose: 0.09 mg/kg/injection, schedule: Q01DX009 (ip), vehicle: saline) 110 % of control [survivor count not shown]; (dose: 0.19 mg/kg/injection, schedule: Q01DX009 (ip), vehicle: saline) 117 % of control [survivor count not shown]; (dose: 0.39 mg/kg/injection, schedule: Q01DX009 (ip), vehicle: saline) 112 % of control [survivor count not shown]; (dose: 0.78 mg/kg/injection, schedule: Q01DX009 (ip), vehicle: saline) 112 % of control [survivor count not shown]; (dose: 1.56 mg/kg/injection, schedule: Q01DX009 (ip), vehicle: saline) 111 % of control [survivor count not shown].
`ClCCN(CCCl)C12CC3CC(CC(C3)C1)C2`: the T/C reads like this: (dose: 0.12 mg/kg/injection, schedule: Q01DX009 (ip), vehicle: saline with Tween-80) 98 % of control [survivor count not shown]; (dose: 0.25 mg/kg/injection, schedule: Q01DX009 (ip), vehicle: saline with Tween-80) 106 % of control [survivor count not shown]; (dose: 0.5 mg/kg/injection, schedule: Q01DX009 (ip), vehicle: saline with Tween-80) 102 % of control [survivor count not shown]; (dose: 1.0 mg/kg/injection, schedule: Q01DX009 (ip), vehicle: saline with Tween-80) 128 % of control [survivor count not shown].
As for `CN1CCCC(OC(=O)C(O)(c2ccccc2)C2CCCCC2)C1` (stereo unspecified), the T/C under setting [5] was 102 % of control [survivor count not shown], the T/C under setting [1] is 105 % of control [survivor count not shown] and the T/C under setting [2] is 113 % of control [survivor count not shown].

These data come from PubChem BioAssay AID192 (DTP/NCI, 2004).
